No constants are given. Whether binding was seen depends on the method and setting. Binding seen in cells or lysates may run through a third protein. These calls come from enrichment with a bait or labelling near it, and not all partners need be listed.
Target: Musashi RNA binding protein 2 (MSI2) (human (endogenous in MDA-MB-231)) (UniProt Q96DH6)
Assay: affinity purification with mass spectrometry; MSI2 antibody coupled to Dynabeads M-270 epoxy beads (7 µg/mg beads) incubated at 4 °C with lysates (1X IP buffer) of untreated MDA-MB-231 and DEHP-exposed clone #1 cells; eluate resolved by SDS-PAGE, bands cut, trypsin digest, LC-MS/MS (Orbitrap Elite), Mascot search against NCBI RefSeq

Chains of the proteins cited; added tags and fusions are not shown.
UniProt Q96DH6: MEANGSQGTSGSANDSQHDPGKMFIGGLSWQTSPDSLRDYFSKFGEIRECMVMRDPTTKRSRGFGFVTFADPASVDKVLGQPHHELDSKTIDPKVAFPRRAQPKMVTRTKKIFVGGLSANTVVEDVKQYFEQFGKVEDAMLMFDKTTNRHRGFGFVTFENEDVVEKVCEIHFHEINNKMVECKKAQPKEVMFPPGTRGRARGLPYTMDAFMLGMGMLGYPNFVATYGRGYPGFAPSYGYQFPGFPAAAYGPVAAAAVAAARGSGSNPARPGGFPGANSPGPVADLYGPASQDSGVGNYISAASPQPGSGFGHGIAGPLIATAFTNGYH
UniProt P08670: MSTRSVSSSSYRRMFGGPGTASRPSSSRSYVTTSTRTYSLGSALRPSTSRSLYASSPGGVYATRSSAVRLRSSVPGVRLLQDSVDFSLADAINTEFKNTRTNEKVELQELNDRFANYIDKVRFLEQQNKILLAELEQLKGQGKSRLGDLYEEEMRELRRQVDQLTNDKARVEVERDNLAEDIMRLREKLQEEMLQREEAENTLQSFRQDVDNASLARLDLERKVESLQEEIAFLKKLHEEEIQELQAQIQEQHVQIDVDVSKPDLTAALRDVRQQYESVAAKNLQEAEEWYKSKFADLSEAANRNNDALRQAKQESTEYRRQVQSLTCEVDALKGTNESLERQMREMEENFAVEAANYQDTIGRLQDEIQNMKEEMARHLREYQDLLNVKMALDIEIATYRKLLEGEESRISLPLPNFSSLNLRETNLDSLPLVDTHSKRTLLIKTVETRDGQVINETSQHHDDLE

For vimentin (from UniProt P08670 1-466), which binding is on record?
Its binding is “binds”.
